Assay results taken from publication PMC11241540.
The exact form of at least one protein or probe is not confirmed.

biological target: PrMADS11 (Pinus radiata D. Don) (UniProt A0A0R6IS23); experiment: EMSA; details: unlabeled DNA reduces shifted band; LightShift Chemiluminescent EMSA kit: binding buffer, poly(dI-dC), glycerol (50% stock), NP-40 (1% stock), MgCl2 (100 mM stock); 20 fmol biotinylated DNA; recombinant protein; residues 1-165; protein details: His-tag (pET301/DEST, native stop codon removed); label: biotin

Binding result, binds:
AAATCCATTATTATGAAAAC (double strand) [CARG6(1555)]
CTTATCCATATTAGGACACC (double strand) [CARG1]
AAATACTATATTTAGATCAA (double strand) [CARG3(466)]
CTTATCCTTATAGAGAACAC (double strand)
